Data published in article PMC11696179, “Molecular condensation of the CO/NF-YB/NF-YC/FT complex gates floral transition in Arabidopsis” (The EMBO Journal, 2024).
Results are given in words; binding and its absence hold for the method and conditions named. Binding calls can cover weak binding; strength is not graded here.

Chains of the proteins cited; added tags and fusions are not shown. Lines headed by an entry give the natural chain unless they say otherwise; changes in a name come on top.
UniProt Q39057: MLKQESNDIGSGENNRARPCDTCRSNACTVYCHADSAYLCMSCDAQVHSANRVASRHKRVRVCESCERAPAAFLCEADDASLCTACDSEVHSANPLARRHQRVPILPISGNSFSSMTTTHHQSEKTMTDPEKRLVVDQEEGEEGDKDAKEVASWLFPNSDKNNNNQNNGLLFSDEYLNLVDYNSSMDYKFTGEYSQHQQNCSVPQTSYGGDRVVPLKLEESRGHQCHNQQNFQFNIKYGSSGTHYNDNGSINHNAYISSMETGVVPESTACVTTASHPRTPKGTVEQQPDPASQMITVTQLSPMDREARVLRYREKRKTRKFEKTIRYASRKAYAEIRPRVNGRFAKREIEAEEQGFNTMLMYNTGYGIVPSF
UniProt Q8L4B2: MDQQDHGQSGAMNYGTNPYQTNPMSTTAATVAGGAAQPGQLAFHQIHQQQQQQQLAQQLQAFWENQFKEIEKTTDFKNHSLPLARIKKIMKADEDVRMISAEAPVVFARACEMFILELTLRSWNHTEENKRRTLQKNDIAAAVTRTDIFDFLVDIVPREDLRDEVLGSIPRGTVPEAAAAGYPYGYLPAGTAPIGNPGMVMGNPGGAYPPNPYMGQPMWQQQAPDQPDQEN

Target: CO (CONSTANS), yeast two-hybrid fusion (Arabidopsis thaliana) (UniProt Q39057)
Test: two-hybrid; yeast AH109; pGBKT7 and pGADT7 fusions; growth on SD/-Trp/-Leu/-His with 10 mM 3-AT

| binding | Substance |
| --- | --- |
| binds | NF-YC9-∆IDR2, yeast two-hybrid fusion (from UniProt Q8L4B2) (domain or fragment) |
| binds | NF-YC9-∆IDR1, yeast two-hybrid fusion (from UniProt Q8L4B2) (domain or fragment) |
